Reference: paper PMC9949351, “Chromatin localization of nucleophosmin organizes ribosome biogenesis” (Molecular cell, 2022)
Results are given in words; binding and its absence hold for the method and conditions named. In cells and extracts the contact can be indirect. A yes stands for co-enrichment or nearness to the bait. Other partners may have been found. Where a sequence is shown, tags or fusion partners need not be part of it.

T1: tagged endogenous Fkbp41 (S. pombe) (UniProt Q10175)
T1 sequence: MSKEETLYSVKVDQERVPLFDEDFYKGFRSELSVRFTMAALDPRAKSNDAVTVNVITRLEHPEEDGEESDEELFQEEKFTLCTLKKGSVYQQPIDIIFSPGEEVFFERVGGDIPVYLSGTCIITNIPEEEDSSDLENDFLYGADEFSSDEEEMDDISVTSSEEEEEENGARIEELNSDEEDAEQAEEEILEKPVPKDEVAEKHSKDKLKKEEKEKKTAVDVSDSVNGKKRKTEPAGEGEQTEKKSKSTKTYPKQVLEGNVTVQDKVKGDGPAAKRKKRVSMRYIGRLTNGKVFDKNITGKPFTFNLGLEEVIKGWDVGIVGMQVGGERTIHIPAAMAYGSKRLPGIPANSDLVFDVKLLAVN

T2: endogenously FLAG-tagged Fkbp39 (S. pombe) (UniProt O74191)
T2 sequence: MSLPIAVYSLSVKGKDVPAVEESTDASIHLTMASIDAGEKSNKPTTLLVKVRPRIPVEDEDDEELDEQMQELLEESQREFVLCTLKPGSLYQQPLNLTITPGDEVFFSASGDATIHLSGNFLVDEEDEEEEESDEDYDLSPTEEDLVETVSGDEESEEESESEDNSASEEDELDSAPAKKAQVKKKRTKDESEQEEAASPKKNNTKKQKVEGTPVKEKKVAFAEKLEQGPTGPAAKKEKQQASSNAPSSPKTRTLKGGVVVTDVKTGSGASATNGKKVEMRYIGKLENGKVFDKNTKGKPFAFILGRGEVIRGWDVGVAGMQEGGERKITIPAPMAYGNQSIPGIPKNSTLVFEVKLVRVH


Legend:
[1] = molecular target: T1, tagged endogenous Fkbp41 (S. pombe); assay: affinity purification with mass spectrometry; endogenously tagged bait (Fkbp39-FLAG from wild-type and fkbp41Δ cells; FLAG-Ytm1 and tagged Fkbp41 from wild-type and fkbp39Δ cells; Nop1) from nuclease-treated S. pombe lysate on anti-FLAG M2 affinity gel, 100 mM NaCl, 7.5 mM MgCl2, Na phosphate pH 8, 0.1% Nonidet P40, eluted with 3XFLAG peptide; SDS-PAGE and mass spectrometry
[2] = molecular target: T2, endogenously FLAG-tagged Fkbp39 (S. pombe); assay: as above

| binding [1] | binding [2] | Molecule |
| --- | --- | --- |
| binds | – | Leo1 (S. pombe) |
| binds | – | Ytm1 (protein, UniProt Q9URY0 1-440) MDAQSAPSGQVQVRFTTRNEDLAVGDTPIFVPTSLKRYGLSQIVNHLLKTEKPTPFDFLVQGQLLKTTLDEYIVQNGLSTESILDIEYIQSTLPPAYLASFSHDDWISGIQLTSDTILTSSYDGIARVWDKSGEIKFQSTGCGSSLKSASWHIPNQSFLTASLDQKIFHWVIEEPESMLDAEKKSSGILQTLFVGHKDIVERVRSLESSSVFISASADNTVGIWDFERSPETTLESFSSSISKKRRRKNAEFTPQAGARSPLILCEGHTGPVMDIVFSDDPSVAYSVGQDHTIKTWDLITGQNVDSKITKAPLLCVEKLTDLHLVICGSSARHIVVHDPRAGSDKIVSHTLSGHKNLVSGLSASPENPYMFASVSHDNTCRVWDVRATSGSIYTISRAEKTGSQWDKLFAVDWNKSIGIVTGGTDKQLQINQSSSFGKSE |
| – | binds | Fkbp41 (found with Fkbp39-FLAG in S. pombe) (protein, UniProt Q10175 1-362) MSKEETLYSVKVDQERVPLFDEDFYKGFRSELSVRFTMAALDPRAKSNDAVTVNVITRLEHPEEDGEESDEELFQEEKFTLCTLKKGSVYQQPIDIIFSPGEEVFFERVGGDIPVYLSGTCIITNIPEEEDSSDLENDFLYGADEFSSDEEEMDDISVTSSEEEEEENGARIEELNSDEEDAEQAEEEILEKPVPKDEVAEKHSKDKLKKEEKEKKTAVDVSDSVNGKKRKTEPAGEGEQTEKKSKSTKTYPKQVLEGNVTVQDKVKGDGPAAKRKKRVSMRYIGRLTNGKVFDKNITGKPFTFNLGLEEVIKGWDVGIVGMQVGGERTIHIPAAMAYGSKRLPGIPANSDLVFDVKLLAVN |
